Test results from US20180344715A1, “WNT/BETA-CATENIN SIGNAL TRANSDUCTION INHIBITORS AND THEIR USE IN TREATMENT OR PREVENTION OF DISEASES AND CONDITIONS LINKED WITH SAID TRANSDUCTION” (BERGEN TEKNOLOGIOVERFORING AS, priority 2015, published 2018).

Columns and labels:
Wnt/β-catenin signaling = assay: TOPFlash reporter assay in 293FT cells; type: cell-based, human; conditions: 24 hours
Procedure: TOPFlash assay was performed in 96-well plate. For each well, 293T cells were transfected with 0.22 μg TOPFlash (or FOPFlash with mutant TCF binding sites) and 0.02 μg pRL-SV40P using lipofectamine 3000. For co-transfection with other plasmids, 0.1 μg additional DNA was used. […] The luciferase activity was measured 24 hours later by using Dual-Glo® Luciferase Assay System (Promega, E2940) according to the recommended protocol. The TOPFlash or FOPFlash activity was normalized to Renilla luciferase signals.
TOPFlash assay was performed as described above. Briefly, for each well of a 96-well plate 293FT cells were transfected with 0.22 μg TOPFlash (or FOPFlash with mutant TCF binding sites) and 0.02 μg pRL-SV40P using lipofectamine 3000. For co-transfection with other plasmids, 0.1 μg additional DNA was used. Four hours after transfection, 293FT cells were treated with DMSO, 1 μM 6B10 and 1 μM 6B10 together with pazopanib, orlistat and topotecan at varying concentrations for 24 hours. The luciferase activity was then measured using Dual-Glo® Luciferase Assay System (Promega, E2940) according to the recommended protocol. The TOPFlash or FOPFlash activity was normalized to Renilla luciferase signals.

VEGFRs = conditions: 1 μM
zebrafish embryos = conditions: embryos treated from 6 hpf

CNC(=O)c1ccccc1Sc1ccc2c(/C=C/c3ccccn3)n[nH]c2c1 [axitinib, N-Methyl-2-[[3-[(E)-2-pyridin-2-ylethenyl]-1H-indazol-6-yl]sulfanyl]benzamide]
Wnt inhibition (TOPFlash) in cells overexpressing β-catenin-4A (Wnt/β-catenin signaling; 293FT cells overexpressing β-catenin-4A (Ser33A/Ser37A/Thr41A/Ser45A)): Wnt inhibition by axitinib was confirmed
inhibition of Wnt/β-catenin signaling activated by GSK3β inhibitor 6BIO, reporter based screening of FDA approved drugs (Wnt/β-catenin signaling; 293FT cells, 6BIO 1 μM, 460 FDA approved drugs at 10 μM): strongest inhibition
inhibition of VEGFRs, in vitro kinase activity (VEGFRs): confirmed
rescue of eyeless phenotype generated by GSK3β inhibition (zebrafish embryos): dose-dependently and totally rescued
